# Test results as given in publication PMC6988281.
# Protein sequences, listed by entry. Tags and fused reporters are not part of them.
# UniProt P78543: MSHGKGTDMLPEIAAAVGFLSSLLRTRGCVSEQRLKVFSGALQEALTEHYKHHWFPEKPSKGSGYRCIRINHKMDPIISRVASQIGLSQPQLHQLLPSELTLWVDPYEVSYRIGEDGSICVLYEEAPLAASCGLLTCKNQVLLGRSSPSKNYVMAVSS
# UniProt Q9C030: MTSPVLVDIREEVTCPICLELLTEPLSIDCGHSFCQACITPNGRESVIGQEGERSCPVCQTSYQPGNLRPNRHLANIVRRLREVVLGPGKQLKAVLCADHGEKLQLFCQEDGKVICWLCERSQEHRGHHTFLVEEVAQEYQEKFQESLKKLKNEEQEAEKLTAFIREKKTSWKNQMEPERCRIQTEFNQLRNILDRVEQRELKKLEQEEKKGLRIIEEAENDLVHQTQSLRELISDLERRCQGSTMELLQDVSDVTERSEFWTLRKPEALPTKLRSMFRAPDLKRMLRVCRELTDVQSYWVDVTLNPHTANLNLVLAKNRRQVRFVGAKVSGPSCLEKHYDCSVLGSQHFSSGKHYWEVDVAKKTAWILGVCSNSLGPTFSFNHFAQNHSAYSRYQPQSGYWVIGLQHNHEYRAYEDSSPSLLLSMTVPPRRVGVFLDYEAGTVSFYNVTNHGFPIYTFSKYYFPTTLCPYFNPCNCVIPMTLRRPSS
# Results are given in words; binding and its absence hold for the method and conditions named. Binding seen in cells or lysates may run through a third protein. Some binding calls cover weakened binding; strength is not graded here.
# Legend:
# GST-tagged TIS21 = GST-tagged TIS21 (UniProt P78543); experiment: pull-down; GST fusion proteins or GST from E. coli on glutathione 4B beads, incubated with HCT-8 cell lysate 2 h at 4 °C, washed three times with RIPA buffer; western blotting; only the target purified
# GST-tagged TRIM6 = GST-tagged TRIM6 (UniProt Q9C030); experiment: as above
# [1] = target: TRIM6 (endogenous, HCT-8 and HCT116 cells) (human (endogenous in HCT-8 and HCT116)) (UniProt Q9C030); experiment: co-IP; HCT-8 and HCT116 lysates (RIPA buffer) with anti-TRIM6, anti-TIS21 or control IgG 2 h at 4 °C, then protein A/G Plus agarose 2 h at 4 °C; western blotting
binding (GST-tagged TIS21),binding (GST-tagged TRIM6),binding [1],Substance
binds,,,"TRIM6 (endogenous, HCT-8 and HCT116 cells) (from UniProt Q9C030 1-488)"
,binds,binds,"TIS21 (endogenous, HCT-8 and HCT116 cells) (from UniProt P78543 1-158)"
